PubChem BioAssay AID1259405, NCATS – 2018
Assay: 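Silenced genes that increase secreted GFP made by CHO cells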 (primary screen). Cells: Chinese hamster CHO-K1 ovary cells with stable secreted eGFP expression. Reagent: single siRNA against mouse genes, 0.8 pmol siRNA per well (2 µl of 400 nM stock). Timing: 3 days. Measurement: 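Percent of the per-plate non-targeting control median for intracellular GFP per well by laser scanning cytometry and for cell viability by ATP luminescence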. Reading the numbers: GFP, % of control: higher = more GFP per well, higher productivity. Active means: 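Called active when intracellular GFP, relative to negative control, is at or above 120%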.
The deposit covers about 50,000 reagents; this is a part drawn at random. About 4,000 of all reagents (8%) were called active. 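Mouse siRNA library applied to hamster cells; one well for each siRNA.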 The numbers tell different reagents against one gene apart. Further read-outs or replicates are left out here. No sequences are given here.

GFP, % of control, by gene and reagent
Arl6ip6: #1 77.1 inactive; #2 87.1 inactive; #3 115 inactive
Polr1e: #1 90.2 inactive; #2 79.8 inactive; #3 52.4 inactive
Mrgprb8: #1 78 inactive; #2 68.2 inactive; #3 58.3 inactive
Adissp: #1 91.9 inactive; #2 99 inactive; #3 97.5 inactive
Fxyd2: #1 95.1 inactive; #2 61.2 inactive; #3 79.9 inactive
Ca9: #1 122 active; #2 76.7 inactive
Igfbp5: #1 81.2 inactive; #2 43.1 inactive; #3 85.1 inactive
Pja2: #1 55 inactive; #2 121 active; #3 79.1 inactive
Spaca7: #1 64.7 inactive; #2 59.8 inactive; #3 97 inactive
Med14: #1 238 active; #2 45.4 inactive; #3 67.2 inactive
H1f8: #1 46.3 inactive; #2 103 inactive; #3 95.1 inactive
Sst: #1 77.2 inactive; #2 57.7 inactive; #3 66.7 inactive

Targets above whose target name begins with F or f (3):
GFP, % of control, by gene and reagent
Fxyd2: #1 95.1 inactive; #2 61.2 inactive; #3 79.9 inactive
